Experimental data from paper doi:10.1101/2020.05.24.113795.
No constants are given. Whether binding was seen depends on the method and setting. Binding seen in cells or lysates may run through a third protein. Some results given as binding are weak or reduced against the parent protein; the word gives no strength.

Amino acid sequences for entries named in this document (tags omitted). A change or cut given only in a name is not applied to a line headed by its entry.
UniProt Q63HN8: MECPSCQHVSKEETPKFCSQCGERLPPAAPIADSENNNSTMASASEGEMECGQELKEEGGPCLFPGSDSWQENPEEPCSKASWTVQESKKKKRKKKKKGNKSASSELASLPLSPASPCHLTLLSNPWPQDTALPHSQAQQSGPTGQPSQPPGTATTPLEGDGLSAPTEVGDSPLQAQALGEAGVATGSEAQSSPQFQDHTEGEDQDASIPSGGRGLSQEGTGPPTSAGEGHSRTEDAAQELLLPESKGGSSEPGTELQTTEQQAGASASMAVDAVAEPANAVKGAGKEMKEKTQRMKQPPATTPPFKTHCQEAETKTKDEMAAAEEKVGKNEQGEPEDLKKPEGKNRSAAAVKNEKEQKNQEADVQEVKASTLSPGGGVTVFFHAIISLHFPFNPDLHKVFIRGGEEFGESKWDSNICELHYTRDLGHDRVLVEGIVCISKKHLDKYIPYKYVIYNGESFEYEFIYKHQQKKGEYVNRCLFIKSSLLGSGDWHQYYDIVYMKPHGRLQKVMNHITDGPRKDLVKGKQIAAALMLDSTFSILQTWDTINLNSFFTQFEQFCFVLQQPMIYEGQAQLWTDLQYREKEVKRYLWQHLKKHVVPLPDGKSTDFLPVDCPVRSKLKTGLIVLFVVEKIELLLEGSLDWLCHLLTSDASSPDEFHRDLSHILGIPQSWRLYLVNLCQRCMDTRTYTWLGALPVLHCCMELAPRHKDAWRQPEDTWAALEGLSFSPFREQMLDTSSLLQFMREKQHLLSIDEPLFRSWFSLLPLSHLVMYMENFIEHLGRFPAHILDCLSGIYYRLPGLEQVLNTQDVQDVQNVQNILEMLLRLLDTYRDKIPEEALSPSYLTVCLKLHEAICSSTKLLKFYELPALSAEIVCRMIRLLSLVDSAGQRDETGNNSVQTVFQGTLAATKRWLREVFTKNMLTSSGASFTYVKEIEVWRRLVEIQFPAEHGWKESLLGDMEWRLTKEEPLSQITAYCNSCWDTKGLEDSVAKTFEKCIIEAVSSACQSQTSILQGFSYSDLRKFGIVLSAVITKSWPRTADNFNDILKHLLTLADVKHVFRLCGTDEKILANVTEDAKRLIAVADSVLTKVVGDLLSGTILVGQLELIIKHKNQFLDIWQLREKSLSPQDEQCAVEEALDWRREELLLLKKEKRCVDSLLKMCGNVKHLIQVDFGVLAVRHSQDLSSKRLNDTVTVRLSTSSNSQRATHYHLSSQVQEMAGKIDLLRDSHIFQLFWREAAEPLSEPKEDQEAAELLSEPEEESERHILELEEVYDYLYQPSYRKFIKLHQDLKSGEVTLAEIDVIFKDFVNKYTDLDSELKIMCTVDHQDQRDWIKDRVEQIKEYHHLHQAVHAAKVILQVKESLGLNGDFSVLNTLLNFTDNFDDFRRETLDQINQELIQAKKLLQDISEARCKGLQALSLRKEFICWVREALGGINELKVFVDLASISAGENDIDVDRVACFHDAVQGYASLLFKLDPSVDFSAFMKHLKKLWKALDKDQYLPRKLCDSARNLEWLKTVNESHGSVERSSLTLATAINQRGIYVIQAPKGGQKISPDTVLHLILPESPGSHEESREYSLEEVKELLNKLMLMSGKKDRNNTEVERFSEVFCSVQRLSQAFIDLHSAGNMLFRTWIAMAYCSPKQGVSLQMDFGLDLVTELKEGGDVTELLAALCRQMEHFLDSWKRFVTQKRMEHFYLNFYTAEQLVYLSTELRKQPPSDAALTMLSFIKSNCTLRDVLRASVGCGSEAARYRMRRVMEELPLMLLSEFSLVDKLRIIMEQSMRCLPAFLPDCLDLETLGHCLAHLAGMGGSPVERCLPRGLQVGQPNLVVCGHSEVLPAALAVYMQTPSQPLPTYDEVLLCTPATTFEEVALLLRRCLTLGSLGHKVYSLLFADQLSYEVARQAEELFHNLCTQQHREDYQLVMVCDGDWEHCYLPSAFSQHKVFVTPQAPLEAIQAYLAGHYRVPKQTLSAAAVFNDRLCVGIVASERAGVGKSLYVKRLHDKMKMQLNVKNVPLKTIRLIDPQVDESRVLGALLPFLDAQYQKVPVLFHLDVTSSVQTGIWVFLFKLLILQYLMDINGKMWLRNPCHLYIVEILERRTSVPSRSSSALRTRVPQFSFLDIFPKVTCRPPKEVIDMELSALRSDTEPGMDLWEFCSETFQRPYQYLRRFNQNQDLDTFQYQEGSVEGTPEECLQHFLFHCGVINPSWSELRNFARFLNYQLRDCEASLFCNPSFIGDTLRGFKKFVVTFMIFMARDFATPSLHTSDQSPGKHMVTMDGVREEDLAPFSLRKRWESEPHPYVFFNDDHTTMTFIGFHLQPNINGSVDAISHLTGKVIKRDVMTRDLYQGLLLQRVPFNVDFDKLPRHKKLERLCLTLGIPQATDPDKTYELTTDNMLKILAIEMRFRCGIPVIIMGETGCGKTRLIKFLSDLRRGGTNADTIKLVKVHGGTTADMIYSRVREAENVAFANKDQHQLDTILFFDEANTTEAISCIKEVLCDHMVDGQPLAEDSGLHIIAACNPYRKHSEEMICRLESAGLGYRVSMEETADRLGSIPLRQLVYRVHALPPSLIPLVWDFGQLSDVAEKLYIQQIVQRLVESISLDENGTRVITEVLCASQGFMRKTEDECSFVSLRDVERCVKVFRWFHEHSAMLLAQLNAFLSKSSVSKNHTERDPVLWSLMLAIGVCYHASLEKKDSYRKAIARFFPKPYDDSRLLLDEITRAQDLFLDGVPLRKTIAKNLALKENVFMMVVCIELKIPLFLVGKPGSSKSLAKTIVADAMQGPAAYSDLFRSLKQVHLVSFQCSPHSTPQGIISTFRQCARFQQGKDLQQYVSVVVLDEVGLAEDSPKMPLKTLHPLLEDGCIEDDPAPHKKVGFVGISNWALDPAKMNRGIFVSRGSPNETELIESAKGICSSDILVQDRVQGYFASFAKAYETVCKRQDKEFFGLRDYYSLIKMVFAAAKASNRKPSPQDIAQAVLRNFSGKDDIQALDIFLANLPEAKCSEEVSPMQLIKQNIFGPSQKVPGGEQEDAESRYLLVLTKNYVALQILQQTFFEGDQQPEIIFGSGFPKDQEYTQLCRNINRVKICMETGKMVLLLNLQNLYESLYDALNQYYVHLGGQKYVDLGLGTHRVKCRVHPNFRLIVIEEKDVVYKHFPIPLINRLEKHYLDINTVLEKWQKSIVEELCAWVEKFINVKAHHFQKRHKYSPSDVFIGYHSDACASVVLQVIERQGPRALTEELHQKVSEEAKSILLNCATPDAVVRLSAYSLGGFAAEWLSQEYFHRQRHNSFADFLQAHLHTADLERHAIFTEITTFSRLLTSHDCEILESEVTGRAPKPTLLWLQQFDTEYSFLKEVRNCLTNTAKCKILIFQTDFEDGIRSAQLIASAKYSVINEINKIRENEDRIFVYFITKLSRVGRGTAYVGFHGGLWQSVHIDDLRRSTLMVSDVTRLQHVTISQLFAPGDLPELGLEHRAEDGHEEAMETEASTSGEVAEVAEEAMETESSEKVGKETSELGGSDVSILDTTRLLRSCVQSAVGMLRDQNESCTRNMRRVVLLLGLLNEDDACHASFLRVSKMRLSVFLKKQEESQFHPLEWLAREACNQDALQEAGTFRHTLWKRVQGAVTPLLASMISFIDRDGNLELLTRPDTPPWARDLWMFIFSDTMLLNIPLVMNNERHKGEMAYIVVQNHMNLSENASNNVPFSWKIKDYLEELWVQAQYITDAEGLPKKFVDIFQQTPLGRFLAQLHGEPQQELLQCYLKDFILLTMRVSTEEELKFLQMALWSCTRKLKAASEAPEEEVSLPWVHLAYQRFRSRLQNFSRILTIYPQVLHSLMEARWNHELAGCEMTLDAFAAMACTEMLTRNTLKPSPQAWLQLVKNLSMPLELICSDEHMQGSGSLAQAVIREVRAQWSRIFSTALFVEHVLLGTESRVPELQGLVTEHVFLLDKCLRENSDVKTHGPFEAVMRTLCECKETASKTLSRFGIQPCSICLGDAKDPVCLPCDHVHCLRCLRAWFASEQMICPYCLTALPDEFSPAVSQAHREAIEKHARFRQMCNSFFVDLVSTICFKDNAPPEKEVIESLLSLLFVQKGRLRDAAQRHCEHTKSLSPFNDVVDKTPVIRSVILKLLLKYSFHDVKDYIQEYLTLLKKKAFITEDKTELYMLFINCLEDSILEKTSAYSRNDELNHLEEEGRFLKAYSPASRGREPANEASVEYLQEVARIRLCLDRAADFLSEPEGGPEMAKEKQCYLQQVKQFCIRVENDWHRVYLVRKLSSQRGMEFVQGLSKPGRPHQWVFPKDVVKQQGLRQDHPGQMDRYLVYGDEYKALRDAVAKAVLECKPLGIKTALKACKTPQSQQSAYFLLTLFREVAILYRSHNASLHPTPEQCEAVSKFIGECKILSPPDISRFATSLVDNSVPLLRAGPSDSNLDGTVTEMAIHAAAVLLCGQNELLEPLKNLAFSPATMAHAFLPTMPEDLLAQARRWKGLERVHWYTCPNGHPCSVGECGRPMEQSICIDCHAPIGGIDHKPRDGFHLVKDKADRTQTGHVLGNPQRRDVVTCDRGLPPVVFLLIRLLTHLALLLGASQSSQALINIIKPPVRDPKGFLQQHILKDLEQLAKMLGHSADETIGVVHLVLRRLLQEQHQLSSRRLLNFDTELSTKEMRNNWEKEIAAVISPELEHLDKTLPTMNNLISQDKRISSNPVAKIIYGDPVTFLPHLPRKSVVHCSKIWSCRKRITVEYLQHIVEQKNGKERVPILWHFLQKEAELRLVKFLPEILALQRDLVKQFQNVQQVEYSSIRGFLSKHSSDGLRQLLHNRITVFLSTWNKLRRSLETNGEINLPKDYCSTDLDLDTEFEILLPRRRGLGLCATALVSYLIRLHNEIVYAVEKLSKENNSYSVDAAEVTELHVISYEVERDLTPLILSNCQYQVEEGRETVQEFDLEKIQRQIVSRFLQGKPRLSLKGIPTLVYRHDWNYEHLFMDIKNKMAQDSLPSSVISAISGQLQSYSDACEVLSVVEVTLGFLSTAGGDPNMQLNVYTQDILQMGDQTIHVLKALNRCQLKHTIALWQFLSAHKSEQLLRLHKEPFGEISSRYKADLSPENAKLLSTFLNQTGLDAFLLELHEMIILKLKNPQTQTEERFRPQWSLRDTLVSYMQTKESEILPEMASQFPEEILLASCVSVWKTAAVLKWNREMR

How the values were obtained:
Assay in all cases: co-IP
[1] = target: 3x-Flag-tagged RNF213 E2488Q (AAA+ ATPase-inactive mutant) (human) (UniProt Q63HN8)
[2] = target: 3x-Flag-tagged RNF213 I3999A (RING E3-defective mutant) (human) (UniProt Q63HN8)
[3] = target: 3x-Flag-tagged RNF213 R4810K (most prevalent MMD variant) (human) (UniProt Q63HN8)

Measured: binding

EGFP-tagged WT RNF213 (from UniProt Q63HN8 1-5207)
binds: all assays above
